Patent publication US6800286
No constants are given. Whether binding was seen depends on the method and setting. Some binding calls cover weakened binding; strength is not graded here.

Amino acid sequences for entries named in this document (tags omitted). A change or cut given only in a name is not applied to a line headed by its entry. Residues count along the entry.
UniProt P16092, residues 22-822: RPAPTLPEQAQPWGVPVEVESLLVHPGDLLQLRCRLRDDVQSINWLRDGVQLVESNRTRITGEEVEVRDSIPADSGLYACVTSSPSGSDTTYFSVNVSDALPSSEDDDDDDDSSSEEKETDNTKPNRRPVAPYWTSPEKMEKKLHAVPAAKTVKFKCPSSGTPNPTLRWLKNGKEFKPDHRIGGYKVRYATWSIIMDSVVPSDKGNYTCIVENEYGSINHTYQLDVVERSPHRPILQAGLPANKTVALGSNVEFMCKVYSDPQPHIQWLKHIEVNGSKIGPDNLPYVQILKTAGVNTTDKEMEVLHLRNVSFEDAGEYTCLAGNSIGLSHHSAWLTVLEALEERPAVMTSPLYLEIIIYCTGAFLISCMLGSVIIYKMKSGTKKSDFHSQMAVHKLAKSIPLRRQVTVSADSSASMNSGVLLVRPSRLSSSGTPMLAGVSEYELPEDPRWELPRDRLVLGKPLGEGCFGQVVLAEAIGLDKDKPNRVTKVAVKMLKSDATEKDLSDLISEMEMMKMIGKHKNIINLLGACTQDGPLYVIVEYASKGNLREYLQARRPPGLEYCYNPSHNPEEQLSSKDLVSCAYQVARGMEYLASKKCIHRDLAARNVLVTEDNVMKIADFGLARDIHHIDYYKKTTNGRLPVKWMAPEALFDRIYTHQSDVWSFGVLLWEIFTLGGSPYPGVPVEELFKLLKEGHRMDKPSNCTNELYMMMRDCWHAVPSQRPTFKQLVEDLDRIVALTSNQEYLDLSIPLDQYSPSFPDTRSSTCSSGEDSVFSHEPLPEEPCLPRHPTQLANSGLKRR
UniProt P09038: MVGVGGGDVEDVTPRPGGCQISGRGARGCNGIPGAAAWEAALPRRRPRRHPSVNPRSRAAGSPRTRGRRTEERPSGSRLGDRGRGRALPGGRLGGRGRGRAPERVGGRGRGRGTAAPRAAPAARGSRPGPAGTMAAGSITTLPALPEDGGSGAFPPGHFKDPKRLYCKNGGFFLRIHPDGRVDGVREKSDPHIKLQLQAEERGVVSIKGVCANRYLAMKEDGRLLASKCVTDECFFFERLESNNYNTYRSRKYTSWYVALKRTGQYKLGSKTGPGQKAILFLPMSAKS

Columns and labels:
[1] = biological target: fibroblast growth factor receptor 1 (FGFR1) present on MM14 cells (mouse) (UniProt P16092); assay: 125I-labeled ligand (20 pM) bound at 4 C to intact MM14 cells, DSS crosslinking, SDS-PAGE and autoradiography; data not shown
[2] = biological target: fibroblast growth factor receptor 1 (FGFR1) present on MM14 cells (mouse) (UniProt P16092); assay: Summary of the MM14 cell surface binding and crosslinking experiment
[3] = biological target: wild type FGF-2 (human) (UniProt P09038); assay: About 2 femtomole of 125I-labeled wild type FGF-2 mixed with varying amounts of unlabeled wild type FGF-2, DSS crosslinking in solution, SDS-PAGE and autoradiography; data not shown

- binding [1]: binds
- binding [2]: binds
- binding [3]: binds
Substance: wild type FGF-2 (from UniProt P09038 143-288) (ligand)
